According to article doi:10.1101/2020.02.20.958934:
These are yes or no findings as the source states them, for the method shown. In cells and extracts the contact can be indirect. Some results given as binding are weak or reduced against the parent protein; the word gives no strength. For some assays here: Sequences can lack the tags named with a protein.

Key:
PEBP1-1d4 = target: T1, PEBP1-1d4 (UniProt P70296); test: co-IP
T1 sequence: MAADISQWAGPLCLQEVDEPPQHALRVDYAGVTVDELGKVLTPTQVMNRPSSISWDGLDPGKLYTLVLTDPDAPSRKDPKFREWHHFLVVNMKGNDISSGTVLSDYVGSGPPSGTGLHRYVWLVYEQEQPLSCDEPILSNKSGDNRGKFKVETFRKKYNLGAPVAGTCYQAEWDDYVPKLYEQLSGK

DCF1-his-myc = target: T2, DCF1-his-myc (UniProt Q9QY73); test: co-IP
T2 sequence: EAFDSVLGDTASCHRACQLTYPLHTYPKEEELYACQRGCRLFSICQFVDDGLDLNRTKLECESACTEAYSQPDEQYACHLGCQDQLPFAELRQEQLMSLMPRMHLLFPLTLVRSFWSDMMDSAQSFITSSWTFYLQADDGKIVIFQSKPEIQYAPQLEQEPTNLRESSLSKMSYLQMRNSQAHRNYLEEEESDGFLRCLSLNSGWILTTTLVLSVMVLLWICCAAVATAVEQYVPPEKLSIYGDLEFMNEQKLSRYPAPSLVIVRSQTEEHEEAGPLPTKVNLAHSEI

binding (PEBP1-1d4): binds
binding (DCF1-his-myc): binds
Substance: RAF1 (from UniProt P04049 1-648)
